Reference: ChEMBL document CHEMBL1157379, “Transcriptional response of Candida parapsilosis following exposure to farnesol” (2007)
This continues a long series; more values of the same kind are listed elsewhere.

Assays:
Type in all cases: functional
Candida parapsilosis [1] = test: Decrease in POL30 gene expression in Candida parapsilosis CLIB214 at 50 uM after 2 hrs by microarray based transcriptional profiling relative to control
Candida parapsilosis [2] = test: Increase in CGD gene ortholog accession number orf19.3291 expression in Candida parapsilosis CLIB214 at 50 uM after 2 hrs by microarray based transcriptional profiling relative to control
Candida parapsilosis [3] = test: Increase in CGD gene ortholog accession number orf19.7378 expression in Candida parapsilosis CLIB214 at 50 uM after 2 hrs by microarray based transcriptional profiling relative to control
Candida parapsilosis [4] = test: Increase in CGD gene ortholog accession number orf19.1864 expression in Candida parapsilosis CLIB214 at 50 uM after 2 hrs by microarray based transcriptional profiling relative to control
Candida parapsilosis [5] = test: Decrease in CGD gene ortholog accession number orf19.7511 expression in Candida parapsilosis CLIB214 at 50 uM after 2 hrs by microarray based transcriptional profiling relative to control
Candida parapsilosis [6] = test: Decrease in CGD gene ortholog accession number orf19.538 expression in Candida parapsilosis CLIB214 at 50 uM after 2 hrs by microarray based transcriptional profiling relative to control
Candida parapsilosis [7] = test: Increase in CGD gene ortholog accession number orf19.949 expression in Candida parapsilosis CLIB214 at 50 uM after 2 hrs by microarray based transcriptional profiling relative to control
Candida parapsilosis [8] = test: Increase in CGD gene ortholog accession number orf19.4621 expression in Candida parapsilosis CLIB214 at 50 uM after 2 hrs by microarray based transcriptional profiling relative to control
Candida parapsilosis [9] = test: Increase in GenBank accession number NP_943635.1 expression in Candida parapsilosis CLIB214 at 50 uM after 2 hrs by microarray based transcriptional profiling relative to control
Candida parapsilosis [10] = test: Increase in CGD gene ortholog accession number orf19.37 expression in Candida parapsilosis CLIB214 at 50 uM after 2 hrs by microarray based transcriptional profiling relative to control
Candida parapsilosis [11] = test: Decrease in CGD gene ortholog accession number orf19.1881 expression in Candida parapsilosis CLIB214 at 50 uM after 2 hrs by microarray based transcriptional profiling relative to control
Candida parapsilosis [12] = test: Increase in CGD gene ortholog accession number orf19.4633 expression in Candida parapsilosis CLIB214 at 50 uM after 2 hrs by microarray based transcriptional profiling relative to control
Candida parapsilosis [13] = test: Increase in CGD gene ortholog accession number orf19.1092 expression in Candida parapsilosis CLIB214 at 50 uM after 2 hrs by microarray based transcriptional profiling relative to control
Candida parapsilosis [14] = test: Increase in CGD gene ortholog accession number orf19.1541 expression in Candida parapsilosis CLIB214 at 50 uM after 2 hrs by microarray based transcriptional profiling relative to control
Candida parapsilosis [15] = test: Decrease in CGD gene ortholog accession number orf19.6805 expression in Candida parapsilosis CLIB214 at 50 uM after 2 hrs by microarray based transcriptional profiling relative to control
Candida parapsilosis [16] = test: Decrease in ERG251 gene expression in Candida parapsilosis CLIB214 at 50 uM after 2 hrs by microarray based transcriptional profiling relative to control
Candida parapsilosis [17] = test: Increase in BMS1 gene expression in Candida parapsilosis CLIB214 at 50 uM after 2 hrs by microarray based transcriptional profiling relative to control
Candida parapsilosis [18] = test: Increase in GenBank accession number NP_943632.1 expression in Candida parapsilosis CLIB214 at 50 uM after 2 hrs by microarray based transcriptional profiling relative to control
Candida parapsilosis [19] = test: Increase in CGD gene ortholog accession number orf19.2564 expression in Candida parapsilosis CLIB214 at 50 uM after 2 hrs by microarray based transcriptional profiling relative to control
Candida parapsilosis [20] = test: Increase in CGD gene ortholog accession number orf19.2749 expression in Candida parapsilosis CLIB214 at 50 uM after 2 hrs by microarray based transcriptional profiling relative to control
Candida parapsilosis [21] = test: Increase in CGD gene ortholog accession number orf19.4133 expression in Candida parapsilosis CLIB214 at 50 uM after 2 hrs by microarray based transcriptional profiling relative to control
Candida parapsilosis [22] = test: Decrease in SDS22 gene expression in Candida parapsilosis CLIB214 at 50 uM after 2 hrs by microarray based transcriptional profiling relative to control
Candida parapsilosis [23] = test: Decrease in DAG7 gene expression in Candida parapsilosis CLIB214 at 50 uM after 2 hrs by microarray based transcriptional profiling relative to control
Candida parapsilosis [24] = test: Decrease in MED8 gene expression in Candida parapsilosis CLIB214 at 50 uM after 2 hrs by microarray based transcriptional profiling relative to control
Candida parapsilosis [25] = test: Decrease in CGD gene ortholog accession number orf19.1307 expression in Candida parapsilosis CLIB214 at 50 uM after 2 hrs by microarray based transcriptional profiling relative to control
Candida parapsilosis [26] = test: Decrease in ZCF12 gene expression in Candida parapsilosis CLIB214 at 50 uM after 2 hrs by microarray based transcriptional profiling relative to control
Candida parapsilosis [27] = test: Decrease in CGD gene ortholog accession number orf19.6650 expression in Candida parapsilosis CLIB214 at 50 uM after 2 hrs by microarray based transcriptional profiling relative to control
Candida parapsilosis [28] = test: Decrease in CGD gene ortholog accession number orf19.2342 expression in Candida parapsilosis CLIB214 at 50 uM after 2 hrs by microarray based transcriptional profiling relative to control
Candida parapsilosis [29] = test: Increase in PRT1 gene expression in Candida parapsilosis CLIB214 at 50 uM after 2 hrs by microarray based transcriptional profiling relative to control
Candida parapsilosis [30] = test: Increase in CRZ2 gene expression in Candida parapsilosis CLIB214 at 50 uM after 2 hrs by microarray based transcriptional profiling relative to control
Candida parapsilosis [31] = test: Increase in CGD gene ortholog accession number orf19.4681 expression in Candida parapsilosis CLIB214 at 50 uM after 2 hrs by microarray based transcriptional profiling relative to control
Candida parapsilosis [32] = test: Increase in CGD gene ortholog accession number orf19.72 expression in Candida parapsilosis CLIB214 at 50 uM after 2 hrs by microarray based transcriptional profiling relative to control
Candida parapsilosis [33] = test: Increase in LSP1 gene expression in Candida parapsilosis CLIB214 at 50 uM after 2 hrs by microarray based transcriptional profiling relative to control
Candida parapsilosis [34] = test: Increase in CGD gene ortholog accession number orf19.4980 expression in Candida parapsilosis CLIB214 at 50 uM after 2 hrs by microarray based transcriptional profiling relative to control
Candida parapsilosis [35] = test: Increase in CDC60B gene expression in Candida parapsilosis CLIB214 at 50 uM after 2 hrs by microarray based transcriptional profiling relative to control
Candida parapsilosis [36] = test: Decrease in CGD gene ortholog accession number orf19.804 expression in Candida parapsilosis CLIB214 at 50 uM after 2 hrs by microarray based transcriptional profiling relative to control

SMILES: CC(C)=CCC/C(C)=C/CC/C(C)=C/CO [FARNESOL]
- fold change (FC) (Candida parapsilosis [1]): 1.69
- fold change (FC) (Candida parapsilosis [2]): 1.81
- fold change (FC) (Candida parapsilosis [3]): 2.01
- fold change (FC) (Candida parapsilosis [4]): 1.69
- fold change (FC) (Candida parapsilosis [5]): 1.74
- fold change (FC) (Candida parapsilosis [6]): 1.67
- fold change (FC) (Candida parapsilosis [7]): 1.8
- fold change (FC) (Candida parapsilosis [8]): 1.65
- fold change (FC) (Candida parapsilosis [9]): 2.03
- fold change (FC) (Candida parapsilosis [10]): 1.74
- fold change (FC) (Candida parapsilosis [11]): 1.57
- fold change (FC) (Candida parapsilosis [12]): 1.57
- fold change (FC) (Candida parapsilosis [13]): 1.52
- fold change (FC) (Candida parapsilosis [14]): 1.92
- fold change (FC) (Candida parapsilosis [15]): 1.95
- fold change (FC) (Candida parapsilosis [16]): 2.24
- fold change (FC) (Candida parapsilosis [17]): 2
- fold change (FC) (Candida parapsilosis [18]): 2.98
- fold change (FC) (Candida parapsilosis [19]): 2.39
- fold change (FC) (Candida parapsilosis [20]): 1.71
- fold change (FC) (Candida parapsilosis [21]): 1.52
- fold change (FC) (Candida parapsilosis [22]): 1.69
- fold change (FC) (Candida parapsilosis [23]): 1.67
- fold change (FC) (Candida parapsilosis [24]): 1.88
- fold change (FC) (Candida parapsilosis [25]): 1.87
- fold change (FC) (Candida parapsilosis [26]): 1.7
- fold change (FC) (Candida parapsilosis [27]): 2.01
- fold change (FC) (Candida parapsilosis [28]): 1.96
- fold change (FC) (Candida parapsilosis [29]): 1.89
- fold change (FC) (Candida parapsilosis [30]): 1.56
- fold change (FC) (Candida parapsilosis [31]): 1.55
- fold change (FC) (Candida parapsilosis [32]): 1.79
- fold change (FC) (Candida parapsilosis [33]): 1.65
- fold change (FC) (Candida parapsilosis [34]): 4.61
- fold change (FC) (Candida parapsilosis [35]): 2.73
- fold change (FC) (Candida parapsilosis [36]): 1.6
